For one molecule, binding results are on record in PMC12146697.

Amino acid sequences for entries named in this document (tags omitted). A change or cut given only in a name is not applied to a line headed by its entry.
UniProt A4D1S5: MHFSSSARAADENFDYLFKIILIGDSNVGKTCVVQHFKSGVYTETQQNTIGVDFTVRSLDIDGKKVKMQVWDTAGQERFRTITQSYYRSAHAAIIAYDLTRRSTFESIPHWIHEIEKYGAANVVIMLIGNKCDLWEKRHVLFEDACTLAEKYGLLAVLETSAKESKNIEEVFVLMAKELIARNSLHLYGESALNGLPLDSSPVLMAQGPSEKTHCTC
UniProt P61026: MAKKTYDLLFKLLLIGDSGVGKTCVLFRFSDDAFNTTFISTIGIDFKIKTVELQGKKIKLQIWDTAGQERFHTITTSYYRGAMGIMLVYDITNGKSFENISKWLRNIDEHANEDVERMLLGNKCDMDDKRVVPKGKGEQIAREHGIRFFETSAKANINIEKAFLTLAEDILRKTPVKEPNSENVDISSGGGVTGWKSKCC
UniProt Q14964: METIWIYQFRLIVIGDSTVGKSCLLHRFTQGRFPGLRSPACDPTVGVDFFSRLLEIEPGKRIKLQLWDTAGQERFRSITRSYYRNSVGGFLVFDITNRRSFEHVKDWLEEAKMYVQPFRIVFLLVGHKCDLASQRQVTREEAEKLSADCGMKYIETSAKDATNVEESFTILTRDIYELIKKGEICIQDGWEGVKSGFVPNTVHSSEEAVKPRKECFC
UniProt Q86YS6: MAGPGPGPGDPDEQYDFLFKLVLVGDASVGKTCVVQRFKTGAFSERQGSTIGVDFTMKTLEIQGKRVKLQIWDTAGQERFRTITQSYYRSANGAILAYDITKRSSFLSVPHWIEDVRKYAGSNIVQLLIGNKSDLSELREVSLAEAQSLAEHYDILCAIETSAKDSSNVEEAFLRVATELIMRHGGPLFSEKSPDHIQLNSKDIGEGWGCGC
UniProt P20340: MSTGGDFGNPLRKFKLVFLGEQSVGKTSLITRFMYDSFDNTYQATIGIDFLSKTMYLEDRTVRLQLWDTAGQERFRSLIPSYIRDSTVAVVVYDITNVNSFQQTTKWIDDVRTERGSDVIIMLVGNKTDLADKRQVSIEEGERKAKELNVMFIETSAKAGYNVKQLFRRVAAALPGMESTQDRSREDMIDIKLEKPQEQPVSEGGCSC

Test in all cases: two-hybrid; Gal4-AD (pACT2-Oxr1) with Gal4-BD (pFBT9-Rab) in strain PJ96-4A; growth on SC-LW and QDO, 3 d, 30 °C
Assay [1] concerns the target Rab1 GTP-restricted mutant (Gal4-BD, pFBT9).
In the next assay the target is Rab1 WT (Gal4-BD, pFBT9).
Assay [2] concerns the target Rab19b GTP-restricted mutant (Gal4-BD, pFBT9) (UniProt A4D1S5).
The target in assay [3] is Rab10 GTP-restricted mutant (Gal4-BD, pFBT9) (UniProt P61026).
The target of assay [4] is Rab8 GTP-restricted mutant (Gal4-BD, pFBT9).
The target in assay [5] is Rab10 GDP-restricted mutant (Gal4-BD, pFBT9) (UniProt P61026).
The target in a further assay is Rab8 WT (Gal4-BD, pFBT9).
In assay [6] the target is Rab39a GDP-restricted mutant (Gal4-BD, pFBT9) (UniProt Q14964).
Assay [7] deals with Rab39a GTP-restricted mutant (Gal4-BD, pFBT9) (UniProt Q14964).
Assay [8] has as its target Rab19b GDP-restricted mutant (Gal4-BD, pFBT9) (UniProt A4D1S5).
Assay [9] concerns the target Rab8 GDP-restricted mutant (Gal4-BD, pFBT9).
Assay [10] has as its target Rab43 GDP-restricted mutant (Gal4-BD, pFBT9) (UniProt Q86YS6).
In assay [11] the target is Rab43 GTP-restricted mutant (Gal4-BD, pFBT9) (UniProt Q86YS6).
Assay [12] concerns the target Rab6 GDP-restricted mutant (Gal4-BD, pFBT9) (UniProt P20340).
The target of assay [13] is Rab1 GDP-restricted mutant (Gal4-BD, pFBT9).
Assay [14] addresses Rab6 GTP-restricted mutant (Gal4-BD, pFBT9) (UniProt P20340).

No constants are given. Whether binding was seen depends on the method and setting. For some of these results: Binding calls can cover weak binding; strength is not graded here. Tags and fused reporters may be left off the sequences shown.

B1: Gal4-AD Oxr1 (pACT2-Oxr1) (protein, UniProt Q4KMM3-1 1-866)
chain: MSVSNLSWLKKKSQSVDITAPGFNPLGGAGKQAPQASKPPAPKTPIIEEEQNNSANTQKHPSRKSELKRFYTIDTGQKKTLDKKDGRRMSFQKPKGTIEYTVESRDSLNSIALKFDTTPNELVQLNKLFSRAVVTGQVLYVPDPEYVSSVESSPSLSPVSPLSPTSSEAEFDKTTTPDVAHPKEAPPASTVSGIRPARVVSSTSEEEEAFTEKFLKINCKYITIGKGTVSGVLLVTPNNIMFDPHKTDPLVQENGCEEYGIMCPMEEVMSAAMYKEILDSKIKESLPIELDQLSGRGSCHSKKATGVSAEDADPRARDQGNDSASTAPRSTEESLSEDAFTESELSPIREELLSSEPRQEKSSDASSESVQTVSQMEVQSLTATSEAANVPDRTSSNPGALSHETGLSGLETATKGGDKATESLQEVSGPKEQSTEVKGQDNQDSSHQESSLQQEAGEDSVSSGETVELKEKPAVLKDQQGQELKRDSETEVEELRKLWKTHSMQQAKQQRDTIQQVSQRESKHSSAAADAHGEGSSLLKEKRRHRLHKFLCLRVGKPMRKTFVSQASATMQQYAQRDKKHEYWFAVPQERTDHLYAFFIQWSPEIYAEDSGEYTREPGFIVVKKMDESEANEAPAGEAAAREWEVVSVAEYHRRIDALNTEELRTLCRRLQITTREDINSKQVAPAKADLEPESFRPNLSDPSELLLPDQIEKLTKHLPPRTIGYPWTLVYGTGKHGTSLKTLYRTMTGLDTPVLMVIKDSDGQVFGALASEPFKVSDGFYGTGETFVFTFCPEFEVFKWTGDNMFFIKGDMDSLAFGGGGGEFALWLDGDLYHGRSHSCKTFGNHTLSKKEDFFIQDIEIWAFE
For B1, the binding entry in assay [1] was “binds”; in the assay with Rab1 WT (Gal4-BD, pFBT9), “binds weakly”; in [2], “binds”; in [3], “binds”; in assay [4], “binds”; in assay [5], “no binding”. For the same molecule, the binding result with Rab8 WT (Gal4-BD, pFBT9) is “binds weakly”; in assay [6], “no binding”; in assay [7] it was “binds”; in assay [8] it was “no binding”; in assay [9], “no binding”; in [10] it was “no binding”. Besides, the binding entry is given as “binds” in assay [11], “no binding” in [12], “no binding” in assay [13] and “binds” in assay [14].
